The target of this experiment is C3b (UniProt P01024). Kind of experiment: SPR; Biacore; C3b immobilised to Fc2 at 1600 RU and Fc3 at 1450 RU and 950 RU; human CFH at 200 nM/100 nM, alone or with PolySia-NP at 1:20 dilution (10 min room temperature incubation); buffer alone as control; both purified. On the technique in general: Surface plasmon resonance follows binding to a sensor surface in real time, without labels.

Protein sequences, listed by entry. Tags and fused reporters are not part of them. Lines headed by an entry give the natural chain unless they say otherwise; changes in a name come on top. Residues count along the entry.
UniProt P01024: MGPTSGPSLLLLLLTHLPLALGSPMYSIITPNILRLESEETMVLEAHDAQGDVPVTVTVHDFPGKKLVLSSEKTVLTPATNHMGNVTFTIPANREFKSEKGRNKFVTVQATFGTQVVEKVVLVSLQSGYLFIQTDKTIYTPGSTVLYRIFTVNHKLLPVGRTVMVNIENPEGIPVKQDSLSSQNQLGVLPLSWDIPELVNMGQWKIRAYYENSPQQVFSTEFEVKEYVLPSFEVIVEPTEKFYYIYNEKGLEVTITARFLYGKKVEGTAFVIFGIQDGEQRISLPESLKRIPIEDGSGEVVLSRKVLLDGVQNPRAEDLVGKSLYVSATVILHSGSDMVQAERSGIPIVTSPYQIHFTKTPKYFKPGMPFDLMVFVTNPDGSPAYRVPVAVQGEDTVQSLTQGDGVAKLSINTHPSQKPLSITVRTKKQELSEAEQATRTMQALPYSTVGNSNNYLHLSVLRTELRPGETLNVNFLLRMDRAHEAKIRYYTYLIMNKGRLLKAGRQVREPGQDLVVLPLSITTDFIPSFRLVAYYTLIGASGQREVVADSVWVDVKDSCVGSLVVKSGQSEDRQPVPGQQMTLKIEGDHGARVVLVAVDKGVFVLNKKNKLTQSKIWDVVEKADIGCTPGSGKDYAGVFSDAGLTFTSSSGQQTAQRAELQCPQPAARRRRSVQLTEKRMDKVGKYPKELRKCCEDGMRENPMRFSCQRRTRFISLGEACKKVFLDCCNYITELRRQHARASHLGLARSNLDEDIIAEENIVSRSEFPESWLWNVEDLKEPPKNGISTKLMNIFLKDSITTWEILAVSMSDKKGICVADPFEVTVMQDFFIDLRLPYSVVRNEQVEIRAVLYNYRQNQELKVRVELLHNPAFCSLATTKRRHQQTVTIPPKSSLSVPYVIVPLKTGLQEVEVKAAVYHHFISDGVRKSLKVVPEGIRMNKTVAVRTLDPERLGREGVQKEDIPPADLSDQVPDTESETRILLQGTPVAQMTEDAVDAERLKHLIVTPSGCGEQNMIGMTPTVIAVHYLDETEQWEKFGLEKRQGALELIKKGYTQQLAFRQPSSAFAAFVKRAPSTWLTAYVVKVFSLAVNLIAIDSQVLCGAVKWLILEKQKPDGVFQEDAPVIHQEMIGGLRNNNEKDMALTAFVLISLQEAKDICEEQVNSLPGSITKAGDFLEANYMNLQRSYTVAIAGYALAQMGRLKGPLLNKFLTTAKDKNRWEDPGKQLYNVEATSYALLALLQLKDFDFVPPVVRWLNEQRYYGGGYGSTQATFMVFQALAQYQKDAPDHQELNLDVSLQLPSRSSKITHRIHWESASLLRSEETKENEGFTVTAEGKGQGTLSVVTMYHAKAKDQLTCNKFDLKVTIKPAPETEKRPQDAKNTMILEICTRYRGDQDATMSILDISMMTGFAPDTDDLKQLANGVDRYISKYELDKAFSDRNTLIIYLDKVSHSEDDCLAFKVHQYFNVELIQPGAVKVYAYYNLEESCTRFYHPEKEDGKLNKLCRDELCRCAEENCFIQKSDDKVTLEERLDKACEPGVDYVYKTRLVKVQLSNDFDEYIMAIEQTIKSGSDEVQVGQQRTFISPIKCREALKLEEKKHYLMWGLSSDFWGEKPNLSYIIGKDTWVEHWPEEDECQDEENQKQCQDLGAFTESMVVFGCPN
UniProt P08603, residues 19-1231: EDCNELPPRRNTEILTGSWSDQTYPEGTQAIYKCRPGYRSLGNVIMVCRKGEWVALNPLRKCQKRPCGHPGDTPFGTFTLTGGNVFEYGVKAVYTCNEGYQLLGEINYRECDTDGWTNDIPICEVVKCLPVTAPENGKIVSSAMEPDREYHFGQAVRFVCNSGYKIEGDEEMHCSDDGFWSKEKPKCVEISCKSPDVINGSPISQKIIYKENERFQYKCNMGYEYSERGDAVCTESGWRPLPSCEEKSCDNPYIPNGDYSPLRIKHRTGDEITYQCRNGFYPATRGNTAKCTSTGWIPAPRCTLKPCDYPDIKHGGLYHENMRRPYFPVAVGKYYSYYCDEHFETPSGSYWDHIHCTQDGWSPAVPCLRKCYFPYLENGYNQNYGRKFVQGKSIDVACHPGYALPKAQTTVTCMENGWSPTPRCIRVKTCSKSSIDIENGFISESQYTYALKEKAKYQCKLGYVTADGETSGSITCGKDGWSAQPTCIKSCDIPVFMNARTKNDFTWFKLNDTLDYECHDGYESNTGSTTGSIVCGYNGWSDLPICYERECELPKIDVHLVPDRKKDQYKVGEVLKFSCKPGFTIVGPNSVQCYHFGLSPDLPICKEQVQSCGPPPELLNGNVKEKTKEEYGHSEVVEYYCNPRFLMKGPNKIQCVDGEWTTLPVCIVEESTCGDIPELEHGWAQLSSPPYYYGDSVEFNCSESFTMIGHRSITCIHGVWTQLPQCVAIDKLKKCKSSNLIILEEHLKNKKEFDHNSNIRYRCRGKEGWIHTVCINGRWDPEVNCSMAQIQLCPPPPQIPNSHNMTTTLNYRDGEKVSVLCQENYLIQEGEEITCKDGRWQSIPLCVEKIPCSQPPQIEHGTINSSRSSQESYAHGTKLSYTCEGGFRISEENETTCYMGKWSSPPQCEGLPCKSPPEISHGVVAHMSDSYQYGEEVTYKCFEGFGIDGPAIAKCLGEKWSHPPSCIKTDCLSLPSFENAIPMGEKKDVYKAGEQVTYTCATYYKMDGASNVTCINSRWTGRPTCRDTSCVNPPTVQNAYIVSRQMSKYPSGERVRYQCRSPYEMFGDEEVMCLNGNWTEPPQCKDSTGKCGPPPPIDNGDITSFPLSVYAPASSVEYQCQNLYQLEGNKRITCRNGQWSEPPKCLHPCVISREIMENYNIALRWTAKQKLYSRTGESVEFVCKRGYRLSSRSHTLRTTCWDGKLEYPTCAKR

These are yes or no findings as the source states them, for the method shown. Some binding calls cover weakened binding; strength is not graded here.

“human complement factor H (from UniProt P08603 19-1231)”: the binding entry was “binds”.

The record behind these values is PMC11053938.
